Data reported in publication PMC9024893, “1,2,4-Trioxolane and 1,2,4,5-Tetraoxane Endoperoxides against Old-World Leishmania Parasites: In Vitro Activity and Mode of Action” (Pharmaceuticals, 2022).

How the values were obtained:
[1] = test system: L. donovani BD14 promastigotes; test: Promastigotes susceptibility assay (MTT), L. donovani; type: cell-based, Leishmania donovani; settings: for SI (J774A.1), L. donovani promastigotes: CC50 in J774A.1 / IC50 of promastigotes; for SI (THP-1), L. donovani promastigotes: CC50 in THP-1 / IC50 of promastigotes
Protocol: (§1) Promastigote forms of strains of L. infantum (MHOM/PT/1988/IMT151) and L. donovani (MHOM/BD/2006/BD14) were cultured at 24 °C ± 1 °C in M199 medium (Sigma) supplemented with 20% foetal bovine serum (FBS, Sigma) and 1% penicillin-streptomycin (Sigma). L. infantum strain belongs to IHMT, Portugal cryobank collection and the L. donovani strain was kindly provided by Dr. Katrin Kuhls, Technical University of Applied Sciences Wildau, Germany. Promastigotes used for the experiments had 7 to 12 in vitro passages in culture after isolation from mice, in order to keep virulence, and were used when the stationary phase of growth was reached (day 5 to 6), corresponding to the highest promastigotes density.
(§2) For the determination of the antileishmanial activity and IC50, promastigotes of L. infantum and L. donovani were plated in 96-well flat bottom culture plates at a concentration of 5 × 10^6 parasites/mL and incubated with six serial concentrations of each compound (Table 3), in four replicates, including the control drugs, amphotericin B, miltefosine and pentamidine. One untreated control (parasites with M199 medium plus 0.5% DMSO as vehicle solution) and one blank (M199 medium alone) were also plated out in quadruplicate. After 48 h incubation at 24 °C ± 1 °C, the inhibitory activity of the compounds was evaluated using the MTT, as previously described, with an additional 4 h incubation at 36 °C. Results were expressed in terms of percentage of parasite viability relative to nontreated control and IC50 was calculated fitting the data as a non-linear regression with variable slope using a dose-response inhibitory model, in the GraphPad Prism V 8.0 program. Each compound was tested in three independent assays. […]

[2] = test system: L. infantum IMT151 promastigotes; test: Promastigotes susceptibility assay (MTT), L. infantum; type: cell-based, Leishmania infantum; settings: for SI (J774A.1), L. infantum promastigotes: CC50 in J774A.1 / IC50 of promastigotes; for SI (THP-1), L. infantum promastigotes: CC50 in THP-1 / IC50 of promastigotes
Protocol: as §1, §2

[3] = test system: L. donovani BD14 intracellular amastigotes; test: Intracellular amastigotes assay in J774A.1 macrophages, L. donovani; type: cell-based, Leishmania donovani; settings: CC50 in J774A.1 / IC50 of amastigotes
Protocol: (§3) The intracellular assay using the macrophage J774A.1 cell line was performed with the compounds that presented best SI on the promastigote’s susceptibility assay. J774A.1 cells were adjusted to 2.5 × 10^5 cells/mL in supplemented DMEM medium. 200 μL/well of the cell suspension was placed in 16 well Lab Tek culture glass slides (Nunc), and incubated at 37 °C ± 1 °C, 5% CO2, for 3 h, to enable the cells to adhere to the slides. After a washing step with DMEM to discard non-attached cells, the cells were infected with 2.5 × 10^6 cells/mL promastigotes in a 10:1 parasite-host cell proportion for 24 h. Compounds and control drugs were added in two replicates of six serial concentrations (Table 3). As negative control, macrophages were cultivated in medium and DMSO, as vehicle solution (0.5% v/v). Slides were incubated for 48 h at the same temperature. After a washing step with 1× PBS (Sigma), slides were fixed and stained, and the infection index was calculated according to [34] by counting the number of intracellular amastigotes per 100 macrophages, in treated and untreated cells. Two independent experiments were performed to determine the amastigotes IC50 of each compound, which was calculated by fitting the data as a non-linear regression with variable slope using a dose-response inhibitory model, in the GraphPad Prism V 8.0 program. SI was determined as described above.

[4] = test system: L. infantum IMT151 intracellular amastigotes; test: Intracellular amastigotes assay in J774A.1 macrophages, L. infantum; type: cell-based, Leishmania infantum
Protocol: as §3

| SMILES | SI (J774A.1), L. donovani promastigotes [1] | SI (THP-1), L. donovani promastigotes [1] | SI (J774A.1), L. infantum promastigotes [2] | SI (THP-1), L. infantum promastigotes [2] | SI (J774A.1), L. donovani amastigotes [3] | SI (J774A.1), L. infantum amastigotes ([4]; CC50 in J774A.1 / IC50 of amastigotes) | SI (THP1), L. infantum amastigotes ([4]; CC50 in THP-1 / IC50 of amastigotes) |
| --- | --- | --- | --- | --- | --- | --- | --- |
| O=C1CCC2(CC1)OOC1(O2)C2CC3CC(C2)CC1C3 (stereo not drawn) [LC50, Dispiro[cyclohexane-1,3'-[1,2,4]trioxolane-5',2''-tricyclo[3.3.1.13,7]decan]-4-one] | 1.5 | 2.0 | 1.4 | 1.9 |  |  |  |
| C1CC2(CCN1)OOC1(OO2)C2CC3CC(C2)CC1C3 [LC139] | 1.8 | 0.2 | 1.9 | 0.2 |  |  |  |
| C1CCC2(CC1)OOC1(OO2)C2CC3CC(C2)CC1C3 [LC137] | 3.1 | 24.9 | 3.2 | 26.0 | 5.0 | 2.6 | 21.2 |
